For three targets, log2 fold change results are on record in the supplement of paper PMC12819154, “High-throughput peptide-centric local stability assay extends protein–ligand identification to membrane proteins, tissues and bacteria” (Nature Structural & Molecular Biology, 2025).

The chains behind the UniProt entries cited, without tags or fusion partners. Where a name states a change or a piece, a line headed by the entry shows the natural chain unless it says otherwise.
UniProt P21499: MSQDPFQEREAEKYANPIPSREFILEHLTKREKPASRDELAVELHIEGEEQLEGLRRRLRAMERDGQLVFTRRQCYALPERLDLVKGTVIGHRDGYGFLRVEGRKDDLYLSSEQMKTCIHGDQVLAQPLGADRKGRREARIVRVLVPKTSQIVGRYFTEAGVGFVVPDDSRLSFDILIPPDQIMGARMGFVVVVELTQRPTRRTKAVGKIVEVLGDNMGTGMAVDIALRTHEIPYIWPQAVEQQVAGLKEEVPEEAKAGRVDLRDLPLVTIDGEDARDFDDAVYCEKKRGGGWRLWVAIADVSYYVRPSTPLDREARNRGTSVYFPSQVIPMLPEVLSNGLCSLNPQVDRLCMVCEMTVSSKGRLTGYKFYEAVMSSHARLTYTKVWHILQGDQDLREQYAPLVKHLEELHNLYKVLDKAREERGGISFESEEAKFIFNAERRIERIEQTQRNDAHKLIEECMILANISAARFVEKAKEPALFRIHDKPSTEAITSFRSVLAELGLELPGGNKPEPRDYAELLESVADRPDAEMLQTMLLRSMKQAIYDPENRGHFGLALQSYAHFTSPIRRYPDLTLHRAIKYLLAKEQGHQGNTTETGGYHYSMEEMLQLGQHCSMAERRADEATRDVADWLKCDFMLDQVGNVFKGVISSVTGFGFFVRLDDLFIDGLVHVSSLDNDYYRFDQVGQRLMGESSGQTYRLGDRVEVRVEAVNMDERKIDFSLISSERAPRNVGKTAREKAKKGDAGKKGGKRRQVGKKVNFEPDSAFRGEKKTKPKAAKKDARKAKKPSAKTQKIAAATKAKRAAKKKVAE
UniProt P13669: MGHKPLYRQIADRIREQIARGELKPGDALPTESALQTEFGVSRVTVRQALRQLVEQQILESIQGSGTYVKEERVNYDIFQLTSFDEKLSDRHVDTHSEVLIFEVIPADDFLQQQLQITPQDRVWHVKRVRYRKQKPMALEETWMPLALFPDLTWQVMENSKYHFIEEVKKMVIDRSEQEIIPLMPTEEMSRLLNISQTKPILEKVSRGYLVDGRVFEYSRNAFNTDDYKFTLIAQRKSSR
UniProt P23830: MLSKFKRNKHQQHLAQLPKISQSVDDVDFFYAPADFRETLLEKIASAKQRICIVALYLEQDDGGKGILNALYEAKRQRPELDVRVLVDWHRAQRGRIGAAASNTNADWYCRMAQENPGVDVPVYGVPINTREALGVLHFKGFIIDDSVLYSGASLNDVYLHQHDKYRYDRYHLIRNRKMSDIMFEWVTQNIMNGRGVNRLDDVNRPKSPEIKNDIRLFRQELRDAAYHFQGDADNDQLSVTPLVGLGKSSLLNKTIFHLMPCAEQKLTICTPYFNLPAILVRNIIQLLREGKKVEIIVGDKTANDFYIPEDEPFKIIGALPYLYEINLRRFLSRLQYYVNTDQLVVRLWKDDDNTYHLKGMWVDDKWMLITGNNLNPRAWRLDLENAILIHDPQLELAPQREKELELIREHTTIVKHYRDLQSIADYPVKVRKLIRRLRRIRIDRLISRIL

Compound in this test: CC1(C)S[C@@H]2[C@H](NC(=O)[C@H](N)c3ccccc3)C(=O)N2[C@H]1C(=O)O [ampicillin]
Kind of test: log2 fold change of tryptic peptide abundance, ligand vs vehicle (limited proteolysis) (log2 ratio); higher = more trypsin-susceptible (destabilized). Conditions: ligand concentration: 10 uM; sample: E. coli crude lysate.

This is one part of the list. Small differences around the control level are noise.

As to “UniProt P21499 (peptide sequence: VEAVNMDER, peptide start residue: 710)”, the log2 fold change is -0.506.

“UniProt P13669 (peptide sequence: YHFIEEVKK, peptide start residue: 162)”: the log2 fold change came out at 0.259. Consider “UniProt P23830 (peptide sequence: VLVDWHR, peptide start residue: 85)”, for which the log2 fold change turned out to be 0.336.
